The results in this text go back to WO2019045086A1.

Amino acid sequences for entries named in this document (tags omitted). A change or cut given only in a name is not applied to a line headed by its entry.
UniProt P01137: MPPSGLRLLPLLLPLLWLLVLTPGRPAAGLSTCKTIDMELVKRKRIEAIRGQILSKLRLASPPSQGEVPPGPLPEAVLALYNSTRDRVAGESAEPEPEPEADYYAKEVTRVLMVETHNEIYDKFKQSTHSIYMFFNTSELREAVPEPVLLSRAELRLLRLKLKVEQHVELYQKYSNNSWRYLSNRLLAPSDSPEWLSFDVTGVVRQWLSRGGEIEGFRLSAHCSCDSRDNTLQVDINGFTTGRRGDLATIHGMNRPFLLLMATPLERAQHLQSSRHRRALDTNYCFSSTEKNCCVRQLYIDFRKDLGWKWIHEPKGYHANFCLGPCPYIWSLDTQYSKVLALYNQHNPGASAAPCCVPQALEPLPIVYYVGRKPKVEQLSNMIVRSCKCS

Positions count from the first letter of the chain named. No constants are given. Whether binding was seen depends on the method and setting. Binding calls can cover weak binding; strength is not graded here.

The target of assay [1] is TGF-β1 (human) (UniProt P01137). Nature of the assay: immunostaining of colon cancer tissue sections.
Assay [2] has the same target. Nature of the assay: fluorescent immunoassay on HepG2 cells.
Assay [3] has as its target active TGF-β1 (human) (UniProt P01137). As to the kind of experiment: immunostaining of colon cancer tissue sections.
Assay [4] addresses TGF-β1 (human) (UniProt P01137). Nature of the assay: Western blot of lysates of cells or tissue overexpressing TGF-β1.

B1: mouse anti-latent TGF-β1 antibody clone 2F10 (antibody, V domains shown)
VH: EVQLQQSGPELVKPGASVKISCKASGYTFTDYYMNWVRQSHGKSLEWIGDIIPNSGGTSYNQKFKGKATLTVDMSSSTAYMELRSLTSEDSAVYYCTTEAMDYWGQGTSVTVSS
VL: DIVLTQSPATLSVTPGDSVSLSCRASQSIRNKLHWYQQKSHESPRLLIKYASQSISRIPSRFSGSGSGTDFTLSINSVETEDFGMYFCLQSNSWPLTFGSGTKLEIKR
Consider B1, for which the binding result in assay [1] is on record as “binds”.

B2: mouse anti-active TGF-β1 antibody clone 2H4 (antibody, V domains shown)
VH: EVKLQQSGTVLARPGTSVKMSCKASGYTFSNYWMHWVKQRPGQGLEWIGAIYPGNSDTRFNQKFKGKAKLTAVTSASTAYMDLSSLTDEDSAVYYCTGYSNYEAGAMDYWGQGTSVTVSS
VL: DIVMTQSPSSLAVSSGEKVTMSCKSSQSLLNSRTRKNYLAWYQQKPGQSPKLLIYWASTRESGVPDRFTGSGSGTDFTLTISGVQAEDLAVYYCQQSYHLPTFGGGTKLEIKR
B2: the binding entry in assay [2], in assay [3] and in assay [4] was “binds” each time.

B3: mouse anti-active TGF-β1 antibody clone 4D10 (antibody, V domains shown)
VH: B2 VH
VL: B2 VL with L11R, P50L
Take B3: the binding result in assay [2], in assay [3] and in assay [4] was “binds” throughout.
